The results in this text go back to publication PMC12455437 (Angewandte Chemie (International Ed. in English), 2025).

This data set can be described thus: general procedure: Fmoc solid-phase peptide synthesis; TentaGel S TRT Cl (0.22 µmol/mg) and TentaGel R RAM (0.19 µmol/mg); HCTU/OxymaPure/NMM. As to conditions: conjugation step.

Regarding 3-C*GCATTCCTCTAGACCTTACT-5, the conjugation yield is 60%.
Under 3-CGCATTCCTCTAGACCTTACT-5 stands 60%.
